# The supplement of paper PMC6411743
# Amino acid sequences for entries named in this document (tags omitted). A change or cut given only in a name is not applied to a line headed by its entry.
# UniProt Q14865: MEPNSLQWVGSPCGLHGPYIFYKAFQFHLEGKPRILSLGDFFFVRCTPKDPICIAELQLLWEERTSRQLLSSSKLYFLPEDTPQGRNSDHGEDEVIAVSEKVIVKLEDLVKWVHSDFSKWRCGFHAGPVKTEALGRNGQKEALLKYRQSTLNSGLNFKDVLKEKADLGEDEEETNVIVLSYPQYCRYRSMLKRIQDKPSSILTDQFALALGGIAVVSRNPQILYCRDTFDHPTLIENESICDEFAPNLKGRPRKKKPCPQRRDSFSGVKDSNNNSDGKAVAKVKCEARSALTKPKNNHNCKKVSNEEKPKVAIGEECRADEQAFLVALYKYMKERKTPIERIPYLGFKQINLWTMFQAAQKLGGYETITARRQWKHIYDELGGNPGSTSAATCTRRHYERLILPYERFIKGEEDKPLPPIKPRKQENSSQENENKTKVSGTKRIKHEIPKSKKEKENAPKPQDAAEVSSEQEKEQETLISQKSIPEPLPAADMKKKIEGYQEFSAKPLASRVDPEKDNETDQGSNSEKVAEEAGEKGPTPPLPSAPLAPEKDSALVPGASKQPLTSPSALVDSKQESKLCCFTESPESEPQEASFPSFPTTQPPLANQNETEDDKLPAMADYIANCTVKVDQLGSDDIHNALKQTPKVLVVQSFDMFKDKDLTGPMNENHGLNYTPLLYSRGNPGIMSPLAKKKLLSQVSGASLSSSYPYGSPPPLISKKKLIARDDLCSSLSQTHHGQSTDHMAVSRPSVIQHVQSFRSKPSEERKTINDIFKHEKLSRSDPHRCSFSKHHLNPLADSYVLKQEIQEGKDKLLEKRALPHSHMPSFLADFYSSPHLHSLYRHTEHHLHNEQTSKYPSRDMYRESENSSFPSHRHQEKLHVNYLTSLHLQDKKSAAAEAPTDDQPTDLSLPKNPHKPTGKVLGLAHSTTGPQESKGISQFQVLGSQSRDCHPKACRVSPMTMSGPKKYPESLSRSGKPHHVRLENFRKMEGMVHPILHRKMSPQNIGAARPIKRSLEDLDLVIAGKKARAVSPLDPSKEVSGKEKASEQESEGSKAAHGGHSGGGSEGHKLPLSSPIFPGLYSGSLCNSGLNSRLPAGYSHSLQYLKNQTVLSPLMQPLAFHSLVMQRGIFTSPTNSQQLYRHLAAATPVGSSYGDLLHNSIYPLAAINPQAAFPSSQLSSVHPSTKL
# UniProt Q2PPJ7: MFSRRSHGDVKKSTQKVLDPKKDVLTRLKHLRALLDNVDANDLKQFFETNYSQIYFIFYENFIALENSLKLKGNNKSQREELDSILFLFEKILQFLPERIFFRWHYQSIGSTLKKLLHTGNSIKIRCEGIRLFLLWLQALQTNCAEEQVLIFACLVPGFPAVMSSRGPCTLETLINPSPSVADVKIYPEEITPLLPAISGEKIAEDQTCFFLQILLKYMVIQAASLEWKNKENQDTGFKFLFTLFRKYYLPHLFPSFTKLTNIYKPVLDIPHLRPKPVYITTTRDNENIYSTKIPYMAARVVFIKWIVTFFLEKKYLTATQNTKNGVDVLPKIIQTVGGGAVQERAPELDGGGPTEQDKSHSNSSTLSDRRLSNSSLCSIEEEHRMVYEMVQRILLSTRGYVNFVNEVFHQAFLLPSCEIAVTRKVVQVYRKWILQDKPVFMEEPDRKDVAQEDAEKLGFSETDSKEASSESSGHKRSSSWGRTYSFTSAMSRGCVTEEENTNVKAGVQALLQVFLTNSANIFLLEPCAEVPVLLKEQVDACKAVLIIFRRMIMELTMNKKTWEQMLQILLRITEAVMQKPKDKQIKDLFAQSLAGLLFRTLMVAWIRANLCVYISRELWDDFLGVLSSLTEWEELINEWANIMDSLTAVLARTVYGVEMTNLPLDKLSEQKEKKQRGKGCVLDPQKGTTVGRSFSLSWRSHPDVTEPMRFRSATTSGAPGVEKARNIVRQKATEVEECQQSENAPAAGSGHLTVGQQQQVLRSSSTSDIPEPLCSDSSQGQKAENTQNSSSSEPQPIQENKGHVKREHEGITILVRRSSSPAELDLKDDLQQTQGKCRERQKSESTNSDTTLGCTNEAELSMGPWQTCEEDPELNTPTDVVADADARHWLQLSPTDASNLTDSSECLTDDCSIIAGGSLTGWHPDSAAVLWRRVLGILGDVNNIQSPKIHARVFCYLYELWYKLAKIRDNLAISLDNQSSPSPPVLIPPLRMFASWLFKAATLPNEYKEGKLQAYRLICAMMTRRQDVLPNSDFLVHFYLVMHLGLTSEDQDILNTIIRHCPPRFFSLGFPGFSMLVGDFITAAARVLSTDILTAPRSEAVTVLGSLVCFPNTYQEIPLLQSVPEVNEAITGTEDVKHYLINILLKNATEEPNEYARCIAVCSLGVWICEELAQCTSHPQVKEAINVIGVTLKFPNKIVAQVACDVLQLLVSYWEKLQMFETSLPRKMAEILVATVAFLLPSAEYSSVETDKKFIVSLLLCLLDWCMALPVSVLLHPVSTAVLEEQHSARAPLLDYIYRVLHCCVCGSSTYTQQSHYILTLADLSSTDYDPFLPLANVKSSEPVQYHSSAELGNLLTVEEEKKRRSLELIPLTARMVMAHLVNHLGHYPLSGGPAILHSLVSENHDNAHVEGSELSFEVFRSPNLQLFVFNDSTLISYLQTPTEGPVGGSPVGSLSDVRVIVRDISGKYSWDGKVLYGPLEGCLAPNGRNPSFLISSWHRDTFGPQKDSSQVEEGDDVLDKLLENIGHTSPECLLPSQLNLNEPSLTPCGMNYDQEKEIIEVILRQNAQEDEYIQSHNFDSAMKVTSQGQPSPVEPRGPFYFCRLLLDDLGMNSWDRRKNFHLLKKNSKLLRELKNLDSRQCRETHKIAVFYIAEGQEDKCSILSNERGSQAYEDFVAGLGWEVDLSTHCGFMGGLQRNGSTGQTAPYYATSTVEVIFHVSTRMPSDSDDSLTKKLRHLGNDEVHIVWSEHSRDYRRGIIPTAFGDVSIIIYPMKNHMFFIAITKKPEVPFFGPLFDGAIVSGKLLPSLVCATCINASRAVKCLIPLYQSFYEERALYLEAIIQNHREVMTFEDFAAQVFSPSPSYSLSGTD
# UniProt Q53S33: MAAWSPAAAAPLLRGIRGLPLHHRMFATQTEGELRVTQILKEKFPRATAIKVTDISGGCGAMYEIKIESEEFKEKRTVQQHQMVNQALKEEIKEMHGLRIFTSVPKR
# UniProt Q14738, whole entry: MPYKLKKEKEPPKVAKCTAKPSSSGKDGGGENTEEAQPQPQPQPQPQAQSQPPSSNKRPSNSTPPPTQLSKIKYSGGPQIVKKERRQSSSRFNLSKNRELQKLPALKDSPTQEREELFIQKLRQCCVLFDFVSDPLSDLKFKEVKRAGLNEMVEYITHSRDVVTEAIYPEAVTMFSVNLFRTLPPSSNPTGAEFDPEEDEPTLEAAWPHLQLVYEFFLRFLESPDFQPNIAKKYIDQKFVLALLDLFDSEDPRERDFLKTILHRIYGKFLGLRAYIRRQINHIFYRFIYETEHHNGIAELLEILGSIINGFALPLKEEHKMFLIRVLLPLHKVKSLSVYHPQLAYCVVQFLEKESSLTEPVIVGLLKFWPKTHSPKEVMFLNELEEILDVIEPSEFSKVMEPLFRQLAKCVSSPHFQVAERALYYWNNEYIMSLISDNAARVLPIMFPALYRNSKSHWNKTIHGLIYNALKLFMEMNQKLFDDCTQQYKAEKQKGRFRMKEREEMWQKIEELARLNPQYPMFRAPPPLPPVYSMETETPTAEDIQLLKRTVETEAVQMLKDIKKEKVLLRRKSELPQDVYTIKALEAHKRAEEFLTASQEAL
# UniProt Q9UKD1: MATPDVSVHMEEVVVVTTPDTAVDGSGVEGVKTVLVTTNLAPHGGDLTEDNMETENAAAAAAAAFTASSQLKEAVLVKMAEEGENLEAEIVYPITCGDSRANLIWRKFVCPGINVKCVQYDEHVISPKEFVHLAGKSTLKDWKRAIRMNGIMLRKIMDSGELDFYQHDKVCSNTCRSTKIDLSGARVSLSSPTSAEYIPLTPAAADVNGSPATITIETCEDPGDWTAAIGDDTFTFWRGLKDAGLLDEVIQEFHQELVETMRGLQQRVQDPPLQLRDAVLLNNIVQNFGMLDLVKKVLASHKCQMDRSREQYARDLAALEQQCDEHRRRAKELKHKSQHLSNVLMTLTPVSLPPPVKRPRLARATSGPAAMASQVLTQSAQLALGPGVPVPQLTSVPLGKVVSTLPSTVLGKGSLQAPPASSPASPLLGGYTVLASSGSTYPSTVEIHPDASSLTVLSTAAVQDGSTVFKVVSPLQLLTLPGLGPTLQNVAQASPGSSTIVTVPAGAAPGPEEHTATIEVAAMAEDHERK
# UniProt Q15648, whole entry: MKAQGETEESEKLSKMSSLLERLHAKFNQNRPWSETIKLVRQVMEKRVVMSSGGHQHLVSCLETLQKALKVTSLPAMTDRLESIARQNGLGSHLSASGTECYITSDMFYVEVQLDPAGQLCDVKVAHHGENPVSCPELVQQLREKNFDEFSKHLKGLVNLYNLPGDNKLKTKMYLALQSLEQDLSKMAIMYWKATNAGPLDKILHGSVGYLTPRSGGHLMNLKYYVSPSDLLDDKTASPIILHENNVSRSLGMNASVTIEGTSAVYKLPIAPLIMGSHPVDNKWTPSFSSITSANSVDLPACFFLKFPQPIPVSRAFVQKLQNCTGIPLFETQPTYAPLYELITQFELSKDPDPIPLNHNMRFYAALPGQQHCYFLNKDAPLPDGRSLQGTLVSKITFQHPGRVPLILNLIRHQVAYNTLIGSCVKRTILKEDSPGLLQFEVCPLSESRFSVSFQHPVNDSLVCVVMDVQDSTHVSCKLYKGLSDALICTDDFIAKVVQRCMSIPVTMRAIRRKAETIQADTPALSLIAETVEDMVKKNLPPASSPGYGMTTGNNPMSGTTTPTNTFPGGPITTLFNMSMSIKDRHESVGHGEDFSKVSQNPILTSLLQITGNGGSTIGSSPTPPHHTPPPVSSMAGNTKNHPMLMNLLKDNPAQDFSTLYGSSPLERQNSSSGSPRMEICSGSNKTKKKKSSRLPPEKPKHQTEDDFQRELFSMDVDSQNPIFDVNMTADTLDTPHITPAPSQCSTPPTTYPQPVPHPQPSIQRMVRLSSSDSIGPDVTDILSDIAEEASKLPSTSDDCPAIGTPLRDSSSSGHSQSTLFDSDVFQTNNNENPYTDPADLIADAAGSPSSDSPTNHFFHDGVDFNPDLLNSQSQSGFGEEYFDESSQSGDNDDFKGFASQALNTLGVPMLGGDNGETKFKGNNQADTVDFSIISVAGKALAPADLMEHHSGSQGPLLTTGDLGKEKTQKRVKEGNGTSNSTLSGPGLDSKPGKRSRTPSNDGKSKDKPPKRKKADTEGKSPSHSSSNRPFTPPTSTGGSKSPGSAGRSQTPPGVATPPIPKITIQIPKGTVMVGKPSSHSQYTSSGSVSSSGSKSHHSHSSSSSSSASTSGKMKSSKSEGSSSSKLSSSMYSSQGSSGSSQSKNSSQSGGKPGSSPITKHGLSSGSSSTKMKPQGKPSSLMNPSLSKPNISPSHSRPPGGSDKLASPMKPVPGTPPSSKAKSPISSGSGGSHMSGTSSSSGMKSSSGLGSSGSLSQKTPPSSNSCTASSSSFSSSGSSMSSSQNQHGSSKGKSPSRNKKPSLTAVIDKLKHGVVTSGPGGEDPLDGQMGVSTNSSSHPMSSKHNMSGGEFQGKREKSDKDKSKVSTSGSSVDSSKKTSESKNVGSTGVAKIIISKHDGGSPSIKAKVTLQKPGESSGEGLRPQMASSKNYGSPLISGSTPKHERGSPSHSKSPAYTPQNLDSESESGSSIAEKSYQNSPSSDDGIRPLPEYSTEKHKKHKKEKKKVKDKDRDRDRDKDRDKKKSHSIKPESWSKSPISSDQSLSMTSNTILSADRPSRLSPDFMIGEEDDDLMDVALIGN
# UniProt Q3KRA6: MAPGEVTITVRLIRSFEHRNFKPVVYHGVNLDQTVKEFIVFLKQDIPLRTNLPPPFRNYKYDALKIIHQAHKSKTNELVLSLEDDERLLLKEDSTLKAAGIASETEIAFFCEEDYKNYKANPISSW
# UniProt Q4VC05, whole entry: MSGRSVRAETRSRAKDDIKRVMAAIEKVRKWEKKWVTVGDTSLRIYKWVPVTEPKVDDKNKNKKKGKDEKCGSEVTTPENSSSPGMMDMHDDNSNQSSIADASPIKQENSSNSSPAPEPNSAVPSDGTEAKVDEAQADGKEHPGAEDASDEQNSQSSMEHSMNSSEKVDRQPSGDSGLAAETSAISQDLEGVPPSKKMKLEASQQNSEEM
# UniProt Q9H4A5: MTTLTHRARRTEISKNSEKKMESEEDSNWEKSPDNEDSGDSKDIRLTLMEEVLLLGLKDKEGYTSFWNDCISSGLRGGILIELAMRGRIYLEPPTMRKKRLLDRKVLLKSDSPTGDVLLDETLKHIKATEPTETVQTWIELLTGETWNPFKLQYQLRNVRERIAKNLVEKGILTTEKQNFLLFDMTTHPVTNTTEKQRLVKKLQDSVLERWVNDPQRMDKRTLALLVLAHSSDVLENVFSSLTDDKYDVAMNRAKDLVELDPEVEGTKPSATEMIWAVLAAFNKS
# ± gives the standard deviation of the averaged measurements. The list shows a part of the results.
# Compound: Nc1nc2c(ncn2[C@@H]2O[C@H](COP(=O)(O)OP(=O)(O)OP(=O)(O)O)[C@@H](O)[C@H]2O)c(=O)[nH]1 [guanosine triphosphate]
# Assay: NP40-soluble protein abundance relative to vehicle (solubility fold change) (ratio); higher = more soluble protein in presence of GTP
# Outline: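 In three independent experiments, Jurkat crude lysate made by Dounce homogenisation was treated for 10 min at room temperature and then 3 min at 37 °C with eight concentrations ranging from 0.1 to 10 mM. It was then solubilised with 0.8% NP40 plus benzonase for 60 min at 4 °C and ultracentrifuged. The supernatant was TMT-labelled for LC-MS/MS, and each value is the fold change against the detergent-processed vehicle for the same replicate, using vsn-normalised intensities.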
Target,NP40-soluble protein abundance (concentration: 0.1mM),NP40-soluble protein abundance (concentration: 0.5mM),NP40-soluble protein abundance (concentration: 1mM),NP40-soluble protein abundance (concentration: 2mM),NP40-soluble protein abundance (concentration: 4mM),NP40-soluble protein abundance (concentration: 6mM),NP40-soluble protein abundance (concentration: 8mM),NP40-soluble protein abundance (concentration: 10mM)
UniProt Q14865,0.987 ± 0.049,1.03 ± 0.14,1.06 ± 0.068,1.03 ± 0.11,1.1 ± 0.12,1.05 ± 0.093,1.09 ± 0.083,1.09 ± 0.12
UniProt Q5TA45 and related entries,1.08 ± 0.11,1.07 ± 0.15,1.03 ± 0.15,1.11 ± 0.2,1.16 ± 0.21,1.13 ± 0.18,1.05 ± 0.11,1.06 ± 0.092
UniProt Q16576 and related entries,0.908 ± 0.072,0.972 ± 0.11,0.91 ± 0.066,0.927 ± 0.098,0.901 ± 0.1,0.891 ± 0.078,0.918 ± 0.11,0.952 ± 0.099
UniProt Q2PPJ7 and related entries,1.15 ± 0.23,1.28 ± 0.32,1.56 ± 0.1,1.16 ± 0.64,1.12 ± 0.38,1.38 ± 0.45,1.35 ± 0.14,1.06 ± 0.14
TOR2A (UniProt Q5JU69),1.11 ± 0.031,1.11 ± 0.062,1.12 ± 0.11,1.14 ± 0.16,1.11 ± 0.15,1.16 ± 0.11,1.14 ± 0.12,1.09 ± 0.14
TBC1D10B (UniProt Q4KMP7),1.01 ± 0.031,1.05 ± 0.05,1.01 ± 0.054,1.04 ± 0.034,1 ± 0.0097,1.01 ± 0.06,1.01 ± 0.053,1.05 ± 0.035
BOLA3 (UniProt Q53S33),0.893 ± 0.02,0.843 ± 0.047,0.962 ± 0.065,0.982 ± 0.03,0.953 ± 0.022,0.966 ± 0.061,0.925 ± 0.09,1.01 ± 0.042
UniProt Q16512 and related entries,0.963 ± 0.026,0.994 ± 0.022,0.937 ± 0.033,0.93 ± 0.03,0.906 ± 0.029,0.914 ± 0.03,0.885 ± 0.041,0.876 ± 0.041
PUS10 (UniProt Q3MIT2),1.09 ± 0.11,1.13 ± 0.14,1.03 ± 0.11,0.975 ± 0.049,0.951 ± 0.012,0.958 ± 0.04,0.925 ± 0.13,0.878 ± 0.11
UniProt Q16555 and related entries,0.98 ± 0.043,0.983 ± 0.031,0.973 ± 0.029,0.955 ± 0.035,0.966 ± 0.039,0.957 ± 0.025,0.97 ± 0.041,0.92 ± 0.034
UniProt Q53GL0 and related entries,1.15 ± 0.09,1.16 ± 0.079,1.28 ± 0.16,1.27 ± 0.29,1.3 ± 0.064,1.31 ± 0.12,1.24 ± 0.13,1.281 ± 0.0026
DNTTIP2 (UniProt Q5QJE6),0.976 ± 0.066,1.06 ± 0.076,1.13 ± 0.11,1.15 ± 0.13,1.19 ± 0.14,1.26 ± 0.15,1.3 ± 0.12,1.3 ± 0.093
UniProt Q16401 and related entries,1.03 ± 0.049,1.02 ± 0.046,1.01 ± 0.048,1.02 ± 0.085,1.01 ± 0.066,0.987 ± 0.09,0.976 ± 0.058,0.955 ± 0.043
UniProt Q504Q3 and related entries,1.1 ± 0.05,1.06 ± 0.059,1.03 ± 0.031,1.04 ± 0.052,1.06 ± 0.078,0.981 ± 0.066,0.991 ± 0.11,0.936 ± 0.087
PPP2R5D (UniProt Q14738),0.946 ± 0.038,0.969 ± 0.061,0.972 ± 0.063,0.952 ± 0.062,0.928 ± 0.08,0.936 ± 0.078,0.946 ± 0.044,0.951 ± 0.043
CD226 (UniProt Q15762),1.06 ± 0.19,0.985 ± 0.18,1 ± 0.19,0.946 ± 0.17,0.989 ± 0.17,0.959 ± 0.19,0.876 ± 0.15,1.01 ± 0.17
UniProt Q5JSZ5,1.04 ± 0.13,1.03 ± 0.11,1.1 ± 0.14,1.14 ± 0.087,1.21 ± 0.13,1.34 ± 0.19,1.45 ± 0.26,1.66 ± 0.27
UniProt Q15545 and related entries,1.02 ± 0.11,0.969 ± 0.065,1.12 ± 0.087,1.12 ± 0.078,1.16 ± 0.041,1.17 ± 0.07,1.11 ± 0.11,1.21 ± 0.086
Q5JTV1 and related entries (UniProt Q9UKD1),1.01 ± 0.068,1.04 ± 0.029,0.954 ± 0.063,0.961 ± 0.039,0.934 ± 0.069,0.97 ± 0.093,0.963 ± 0.1,0.968 ± 0.061
HSP90AB4P (UniProt Q58FF6),0.892 ± 0.094,0.926 ± 0.14,0.902 ± 0.16,0.862 ± 0.076,0.952 ± 0.15,0.904 ± 0.16,0.888 ± 0.15,0.888 ± 0.15
UniProt Q15526 and related entries,1.17 ± 0.11,1.1 ± 0.093,0.971 ± 0.038,1.01 ± 0.039,1 ± 0.027,0.972 ± 0.049,0.934 ± 0.11,0.963 ± 0.018
UniProt Q4G0J3 and related entries,1.09 ± 0.026,1.02 ± 0.017,1.1 ± 0.051,1.17 ± 0.061,1.3 ± 0.079,1.35 ± 0.11,1.41 ± 0.13,1.49 ± 0.1
MED1 (UniProt Q15648),1.01 ± 0.064,1.04 ± 0.022,1.08 ± 0.031,1.09 ± 0.036,1.08 ± 0.045,1.12 ± 0.061,1.12 ± 0.093,1.13 ± 0.097
QPRT (UniProt Q15274),0.996 ± 0.04,0.993 ± 0.031,0.9267 ± 0.0056,0.944 ± 0.029,0.936 ± 0.013,0.913 ± 0.019,0.926 ± 0.019,0.92 ± 0.031
C2orf76 (UniProt Q3KRA6),1.03 ± 0.14,0.986 ± 0.16,1.01 ± 0.054,1.06 ± 0.16,0.981 ± 0.14,1.03 ± 0.1,0.974 ± 0.12,0.935 ± 0.076
UniProt Q4VC05 and related entries,1.03 ± 0.12,1.29 ± 0.32,1.37 ± 0.13,1.38 ± 0.18,1.29 ± 0.22,1.4 ± 0.033,1.44 ± 0.058,1.61 ± 0.44
UniProt Q15650 and related entries,1.107 ± 0.011,1.07 ± 0.041,1.09 ± 0.055,1.07 ± 0.13,1.15 ± 0.1,1.13 ± 0.1,1.23 ± 0.18,1.27 ± 0.025
UniProt Q16611 and related entries,0.936 ± 0.08,0.901 ± 0.036,0.887 ± 0.07,0.942 ± 0.077,0.879 ± 0.093,0.845 ± 0.082,0.785 ± 0.16,0.881 ± 0.14
Q5T5I6 and related entries (UniProt Q9H4A5),0.96 ± 0.075,0.928 ± 0.09,0.956 ± 0.12,0.951 ± 0.14,0.935 ± 0.074,0.928 ± 0.12,0.913 ± 0.17,0.892 ± 0.17
UniProt Q5JTH9 and related entries,1.08 ± 0.053,1.08 ± 0.081,1.09 ± 0.091,1.1 ± 0.15,1.11 ± 0.14,1.08 ± 0.16,1.08 ± 0.15,1.11 ± 0.15

# Complete entries, quoted from the list. Values in the order: NP40-soluble protein abundance (concentration: 0.1mM) | NP40-soluble protein abundance (concentration: 0.5mM) | NP40-soluble protein abundance (concentration: 1mM) | NP40-soluble protein abundance (concentration: 2mM) | NP40-soluble protein abundance (concentration: 4mM) | NP40-soluble protein abundance (concentration: 6mM) | NP40-soluble protein abundance (concentration: 8mM) | NP40-soluble protein abundance (concentration: 10mM)
# UniProt Q4G0J3 and related entries as listed: 1.09 ± 0.026 | 1.02 ± 0.017 | 1.1 ± 0.051 | 1.17 ± 0.061 | 1.3 ± 0.079 | 1.35 ± 0.11 | 1.41 ± 0.13 | 1.49 ± 0.1
# PUS10 (UniProt Q3MIT2) as listed: 1.09 ± 0.11 | 1.13 ± 0.14 | 1.03 ± 0.11 | 0.975 ± 0.049 | 0.951 ± 0.012 | 0.958 ± 0.04 | 0.925 ± 0.13 | 0.878 ± 0.11
